Experimental data as given in US20260272851A1, “FORMULATION COMPRISING APOCYNIN AND PAEONOL” (AKL Research & Development Ltd, priority 2022, published 2026).
Some of these results come from one statement about several compounds together.

Test system: human TC28a2 chondrocyte cells
Experiment: DRAQ7 chondrocyte viability assay (flow cytometry)
Format: cell-based
Conditions: APPA 10 μg/ml, PA 7.7 and 10 μg/ml, 24 h, upper limit over all conditions
Method: A novel cell viability assay uses DRAQ7, a marker of apoptosis, necrosis and dead cells. DRAQ7 stains the nuclei in dead and permeabilised cells but not in intact live cells.
To determine the effects of APPA (10 μg/ml) AP (2.3 and 10 μg/ml) and PA (7.7 and 10 μg/ml) on chondrocyte viability, an assay based on DRAQ7™ (Thermo Fisher Scientific) was used. DRAQ7™ is a dye that can be used to show apoptosis, necrosis and dead cells, and the assay includes staining of nuclei in dead and permeabilised cells but not staining of intact live cells.
For the assay, cells were grown in flasks due to higher number of cells required. Following 24 h of different treatments, cells were trypsinised and centrifuged at 1500 rpm for 10 minutes (min). The harvested cells were suspended in 3 µM of the fluorescent dye DRAQ7™ (Thermo Fisher) and incubated in the dark, at room temperature (rt) for 10 min. The samples were run on CytoFLex flow cytometer (Beckman Coulter Inc. Ca, USA). At least 1×10^4 cells per assay were measured. Data were analysed using CyExpert V 2.5 software (Beckman Coulter Inc). […] To establish the position of DRAQ7− and DRAQ7+ gates, one of each negative and positive control was stained with DRAQ7 dye and the other with PBS alone (data not shown).

For COc1ccc(C(C)=O)c(O)c1 [PA, 2-hydroxy-4-methoxyacetophenone], the “percentage of (non-viable) cells positive for DRAQ7” value was ≤ 5.05%.
